These are yes or no findings as the source states them, for the method shown. Some entries that bind do so weakly or less than the wild type. Sequences can lack the tags named with a protein.
Assays:
Assay in all cases: two-hybrid; Matchmaker GAL4 two-hybrid system 3, yeast AH109; VAL1 constructs in pGADT7 (AD), SNL constructs in pGBKT7 (BD); growth on medium lacking Trp, Leu, His and Ade, 3-5 d at 30 °C
[1] = molecular target: SNL3 (SIN3-LIKE 3), full length, fused to the GAL4 binding domain (Arabidopsis thaliana) (UniProt O48686)
[2] = molecular target: SNL5-PAH (aa 1–250), fused to the GAL4 binding domain (Arabidopsis thaliana) (UniProt Q9XIE1)
[3] = molecular target: SNL3-C terminal (aa 851–1326), fused to the GAL4 binding domain (Arabidopsis thaliana) (UniProt O48686)
[4] = molecular target: SNL3-HID (aa 391–850), fused to the GAL4 binding domain (Arabidopsis thaliana) (UniProt O48686)
[5] = molecular target: SNL3-ΔC (aa 1–850), fused to the GAL4 binding domain (Arabidopsis thaliana) (UniProt O48686)
[6] = molecular target: SNL3-ΔN (aa 391–1326), fused to the GAL4 binding domain (Arabidopsis thaliana) (UniProt O48686)

Chains of the proteins cited; added tags and fusions are not shown. Lines headed by an entry give the natural chain unless they say otherwise; changes in a name come on top. A line that says so, or that is headed by a name, gives the form on record, which may keep a tag or linker. Residues count along the entry.
UniProt O48686: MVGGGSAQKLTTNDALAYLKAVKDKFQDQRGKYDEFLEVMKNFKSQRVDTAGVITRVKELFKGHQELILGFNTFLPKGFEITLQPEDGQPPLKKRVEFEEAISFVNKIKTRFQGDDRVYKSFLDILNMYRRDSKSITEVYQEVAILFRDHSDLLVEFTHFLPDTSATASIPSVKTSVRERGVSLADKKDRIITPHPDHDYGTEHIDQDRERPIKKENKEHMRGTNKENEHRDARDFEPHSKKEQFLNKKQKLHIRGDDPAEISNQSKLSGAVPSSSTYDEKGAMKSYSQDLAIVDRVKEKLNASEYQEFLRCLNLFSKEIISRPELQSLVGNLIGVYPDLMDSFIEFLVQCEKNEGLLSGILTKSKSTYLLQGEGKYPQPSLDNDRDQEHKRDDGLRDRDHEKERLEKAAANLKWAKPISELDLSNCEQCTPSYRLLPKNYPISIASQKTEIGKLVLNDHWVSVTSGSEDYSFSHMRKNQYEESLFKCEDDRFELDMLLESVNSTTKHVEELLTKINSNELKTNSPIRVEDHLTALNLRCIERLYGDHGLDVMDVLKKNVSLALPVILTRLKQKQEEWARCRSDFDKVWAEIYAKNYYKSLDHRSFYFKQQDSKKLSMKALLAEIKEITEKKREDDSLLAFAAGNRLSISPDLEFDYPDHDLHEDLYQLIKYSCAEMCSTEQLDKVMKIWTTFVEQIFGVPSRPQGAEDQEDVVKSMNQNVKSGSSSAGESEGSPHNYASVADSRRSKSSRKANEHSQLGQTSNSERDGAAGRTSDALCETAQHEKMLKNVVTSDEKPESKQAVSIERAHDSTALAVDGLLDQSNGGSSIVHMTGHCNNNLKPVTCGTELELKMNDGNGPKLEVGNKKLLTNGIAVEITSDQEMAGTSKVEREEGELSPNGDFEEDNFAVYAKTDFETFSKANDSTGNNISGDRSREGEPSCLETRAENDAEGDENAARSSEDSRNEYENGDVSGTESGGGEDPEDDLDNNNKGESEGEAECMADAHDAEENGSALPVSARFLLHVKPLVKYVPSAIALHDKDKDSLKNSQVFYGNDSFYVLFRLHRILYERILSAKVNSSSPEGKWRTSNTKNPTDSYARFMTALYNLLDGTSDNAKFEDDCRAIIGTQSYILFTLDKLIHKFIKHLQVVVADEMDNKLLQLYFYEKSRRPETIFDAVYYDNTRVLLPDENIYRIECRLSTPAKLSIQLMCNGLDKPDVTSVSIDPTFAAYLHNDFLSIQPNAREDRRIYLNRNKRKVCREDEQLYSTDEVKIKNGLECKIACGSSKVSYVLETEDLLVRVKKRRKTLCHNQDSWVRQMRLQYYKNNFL
SNL3-ΔC (aa 1–850), fused to the GAL4 binding domain: residues 1-850 of O48686
SNL3-ΔN (aa 391–1326), fused to the GAL4 binding domain: residues 391-1326 of O48686
SNL3-HID (aa 391–850), fused to the GAL4 binding domain: residues 391-850 of O48686
SNL3-C terminal (aa 851–1326), fused to the GAL4 binding domain: residues 851-1326 of O48686
UniProt Q9XIE1, residues 1-250: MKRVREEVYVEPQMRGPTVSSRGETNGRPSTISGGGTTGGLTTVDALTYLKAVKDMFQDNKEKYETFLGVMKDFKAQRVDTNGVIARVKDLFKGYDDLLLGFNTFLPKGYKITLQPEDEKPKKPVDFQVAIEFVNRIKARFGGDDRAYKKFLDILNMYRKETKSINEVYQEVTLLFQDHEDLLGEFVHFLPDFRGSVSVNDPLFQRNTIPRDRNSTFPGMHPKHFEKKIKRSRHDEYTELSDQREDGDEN

| Binder | binding [1] | binding [2] | binding [3] | binding [4] | binding [5] | binding [6] |
| --- | --- | --- | --- | --- | --- | --- |
| VAL1-CW (aa 458–673), fused to the GAL4 activating domain (domain or fragment, UniProt Q8W4L5 458-673) DDPTRVKEKKRTRTIGAKNKRLLLHSEESMELRLTWEEAQDLLRPSPSVKPTIVVIEEQEIEEYDEPPVFGKRTIVTTKPSGEQERWATCDDCSKWRRLPVDALLSFKWTCIDNVWDVSRCSCSAPEESLKELENVLKVGREHKKRRTGESQAAKSQQEPCGLDALASAAVLGDTIGEPEVATTTRHPRHRAGCSCIVCIQPPSGKGRHKPTCGCT | binds | binds |  |  |  |  |
| VAL1 (VIVIPAROUS1/ABSCISIC ACID …3-LIKE1), full length, fused to the GAL4 activating domain (protein, UniProt Q8W4L5 1-790) MFEVKMGSKMCMNASCGTTSTVEWKKGWPLRSGLLADLCYRCGSAYESSLFCEQFHKDQSGWRECYLCSKRLHCGCIASKVTIELMDYGGVGCSTCACCHQLNLNTRGENPGVFSRLPMKTLADRQHVNGESGGRNEGDLFSQPLVMGGDKREEFMPHRGFGKLMSPESTTTGHRLDAAGEMHESSPLQPSLNMGLAVNPFSPSFATEAVEGMKHISPSQSNMVHCSASNILQKPSRPAISTPPVASKSAQARIGRPPVEGRGRGHLLPRYWPKYTDKEVQQISGNLNLNIVPLFEKTLSASDAGRIGRLVLPKACAEAYFPPISQSEGIPLKIQDVRGREWTFQFRYWPNNNSRMYVLEGVTPCIQSMMLQAGDTVTFSRVDPGGKLIMGSRKAANAGDMQGCGLTNGTSTEDTSSSGVTENPPSINGSSCISLIPKELNGMPENLNSETNGGRIGDDPTRVKEKKRTRTIGAKNKRLLLHSEESMELRLTWEEAQDLLRPSPSVKPTIVVIEEQEIEEYDEPPVFGKRTIVTTKPSGEQERWATCDDCSKWRRLPVDALLSFKWTCIDNVWDVSRCSCSAPEESLKELENVLKVGREHKKRRTGESQAAKSQQEPCGLDALASAAVLGDTIGEPEVATTTRHPRHRAGCSCIVCIQPPSGKGRHKPTCGCTVCSTVKRRFKTLMMRRKKKQLERDVTAAEDKKKKDMELAESDKSKEEKEVNTARIDLNSDPYNKEDVEAVAVEKEESRKRAIGQCSGVVAQDASDVLGVTELEGEGKNVREEPRVSS | binds | binds | no binding | no binding | binds | no binding |

Source: publication PMC9266683
